Experimental data as given in paper PMC13291236.
These are yes or no findings as the source states them, for the method shown. Binding seen in cells or lysates may run through a third protein. Some results given as binding are weak or reduced against the parent protein; the word gives no strength.

By UniProt entry, the sequences of proteins in these tests, tags left out. Residues count along the entry.
UniProt P56480, residues 47-529: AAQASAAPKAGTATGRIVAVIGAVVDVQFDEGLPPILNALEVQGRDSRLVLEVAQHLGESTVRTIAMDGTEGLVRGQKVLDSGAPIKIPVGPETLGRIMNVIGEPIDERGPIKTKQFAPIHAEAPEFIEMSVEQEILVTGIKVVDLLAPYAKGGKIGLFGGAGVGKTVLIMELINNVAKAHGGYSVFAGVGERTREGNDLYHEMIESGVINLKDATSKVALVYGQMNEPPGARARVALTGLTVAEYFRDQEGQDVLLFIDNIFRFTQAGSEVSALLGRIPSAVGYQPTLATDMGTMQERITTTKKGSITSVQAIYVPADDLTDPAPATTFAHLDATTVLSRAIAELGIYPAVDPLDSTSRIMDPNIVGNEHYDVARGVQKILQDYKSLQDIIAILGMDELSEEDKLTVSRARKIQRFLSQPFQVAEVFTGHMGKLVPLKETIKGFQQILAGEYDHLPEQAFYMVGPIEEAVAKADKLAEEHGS
UniProt Q03265, residues 44-553: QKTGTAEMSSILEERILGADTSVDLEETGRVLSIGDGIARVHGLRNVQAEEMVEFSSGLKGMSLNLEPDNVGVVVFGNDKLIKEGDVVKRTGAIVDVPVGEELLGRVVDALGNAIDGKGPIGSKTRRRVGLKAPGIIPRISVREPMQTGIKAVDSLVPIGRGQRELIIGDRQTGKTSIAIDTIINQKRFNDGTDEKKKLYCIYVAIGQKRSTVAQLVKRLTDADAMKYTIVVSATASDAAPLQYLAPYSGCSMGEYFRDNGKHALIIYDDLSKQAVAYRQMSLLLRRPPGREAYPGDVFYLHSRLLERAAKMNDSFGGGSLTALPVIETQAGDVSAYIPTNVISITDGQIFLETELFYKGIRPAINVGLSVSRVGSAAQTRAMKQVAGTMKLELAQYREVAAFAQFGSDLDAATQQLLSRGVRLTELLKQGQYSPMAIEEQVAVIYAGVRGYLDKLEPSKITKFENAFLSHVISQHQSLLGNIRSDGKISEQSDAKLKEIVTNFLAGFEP

T1: ATPase inhibitory factor 1 (ATIF1) (mouse (endogenous in heart mitochondria)) (UniProt O35143)
T1 sequence: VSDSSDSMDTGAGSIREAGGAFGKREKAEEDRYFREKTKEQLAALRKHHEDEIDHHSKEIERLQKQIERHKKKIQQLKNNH

T2: ATP synthase subunit ATPG (mouse (endogenous in heart mitochondria)) (UniProt Q91VR2)
T2 sequence: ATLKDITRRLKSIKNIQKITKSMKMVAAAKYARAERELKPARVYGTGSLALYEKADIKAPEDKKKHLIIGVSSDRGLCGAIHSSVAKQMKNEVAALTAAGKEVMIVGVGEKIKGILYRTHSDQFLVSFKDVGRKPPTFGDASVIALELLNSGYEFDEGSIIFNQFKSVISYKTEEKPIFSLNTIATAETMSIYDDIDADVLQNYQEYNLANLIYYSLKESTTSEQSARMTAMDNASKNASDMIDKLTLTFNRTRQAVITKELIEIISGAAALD


Experiments:
Assay in all cases: cross-linking; in-solution XL-MS: intact heart mitochondria (500 µg) of wild-type and Lrpprc knockout mice, 0.5 mM DSSO, 45 min, 15 °C; LC-MS/MS, XlinkX; n = 3 biological replicates
[1] = biological target: ATP synthase F1 subunit β (ATPB) (mouse (endogenous in heart mitochondria)) (UniProt P56480)
[2] = biological target: ATP synthase F1 subunit α (ATPA) (mouse (endogenous in heart mitochondria)) (UniProt Q03265)
[3] = biological target: T1, ATPase inhibitory factor 1 (ATIF1) (mouse (endogenous in heart mitochondria))
[4] = biological target: T2, ATP synthase subunit ATPG (mouse (endogenous in heart mitochondria))

binding [1] | binding [2] | binding [3] | binding [4] | Binder
binds | binds | binds | – | malate dehydrogenase (MDHM) (enzyme, UniProt P08249 25-338) AKVAVLGASGGIGQPLSLLLKNSPLVSRLTLYDIAHTPGVAADLSHIETRANVKGYLGPEQLPDCLKGCDVVVIPAGVPRKPGMTRDDLFNTNATIVATLTAACAQHCPEAMVCIIANPVNSTIPITAEVFKKHGVYNPNKIFGVTTLDIVRANTFVAELKGLDPARVNVPVIGGHAGKTIIPLISQCTPKVDFPQDQLATLTGRIQEAGTEVVKAKAGAGSATLSMAYAGARFVFSLVDAMNGKEGVVECSFVQSKETECTYFSTPLLLGKKGLEKNLGIGKITPFEEKMIAEAIPELKASIKKGEDFVKNMK
binds | binds | binds | binds | ATPase inhibitory factor 1 (ATIF1) (protein, UniProt O35143 26-106) VSDSSDSMDTGAGSIREAGGAFGKREKAEEDRYFREKTKEQLAALRKHHEDEIDHHSKEIERLQKQIERHKKKIQQLKNNH
– | – | binds | – | citrate synthase (CISY) (enzyme, UniProt Q9CZU6 28-464) ASSTNLKDVLSNLIPKEQARIKTFKQQHGKTVVGQITVDMMYGGMRGMKGLVYETSVLDPDEGIRFRGYSIPECQKMLPKAKGGEEPLPEGLFWLLVTGQMPTEEQVSWLSREWAKRAALPSHVVTMLDNFPTNLHPMSQLSAAITALNSESNFARAYAEGMNRAKYWELIYEDCMDLIAKLPCVAAKIYRNLYREGSSIGAIDSRLDWSHNFTNMLGYTDPQFTELMRLYLTIHSDHEGGNVSAHTSHLVGSALSDPYLSFAAAMNGLAGPLHGLANQEVLVWLTQLQKEVGKDVSDEKLRDYIWNTLNSGRVVPGYGHAVLRKTDPRYSCQREFALKHLPKDPMFKLVAQLYKIVPNILLEQGKAKNPWPNVDAHSGVLLQYYGMTEMNYYTVLFGVSRALGVLAQLIWSRALGFPLERPKSMSTDGLMKFVDSK
